Our source for the binding values is publication PMC11405040, “PRMT5-mediated FUBP1 methylation accelerates prostate cancer progression” (The Journal of Clinical Investigation, 2024).

The chains behind the UniProt entries cited, without tags or fusion partners.
UniProt Q96AE4: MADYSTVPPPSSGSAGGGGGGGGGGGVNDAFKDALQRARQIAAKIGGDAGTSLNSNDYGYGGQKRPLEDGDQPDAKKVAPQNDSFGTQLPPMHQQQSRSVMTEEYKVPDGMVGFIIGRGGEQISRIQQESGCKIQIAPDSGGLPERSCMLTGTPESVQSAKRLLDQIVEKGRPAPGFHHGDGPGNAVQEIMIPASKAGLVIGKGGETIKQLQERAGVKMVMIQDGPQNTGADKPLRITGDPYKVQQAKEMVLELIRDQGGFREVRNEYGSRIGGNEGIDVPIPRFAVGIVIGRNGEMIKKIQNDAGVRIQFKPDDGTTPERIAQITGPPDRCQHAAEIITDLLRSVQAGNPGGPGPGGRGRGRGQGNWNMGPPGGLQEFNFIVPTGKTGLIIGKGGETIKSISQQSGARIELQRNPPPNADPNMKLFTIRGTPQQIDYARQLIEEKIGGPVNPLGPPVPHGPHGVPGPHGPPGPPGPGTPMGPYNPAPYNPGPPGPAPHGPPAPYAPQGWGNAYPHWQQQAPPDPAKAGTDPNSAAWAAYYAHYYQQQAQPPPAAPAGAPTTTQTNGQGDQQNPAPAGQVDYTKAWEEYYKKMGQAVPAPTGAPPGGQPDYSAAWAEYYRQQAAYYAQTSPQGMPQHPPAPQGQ
UniProt O14744: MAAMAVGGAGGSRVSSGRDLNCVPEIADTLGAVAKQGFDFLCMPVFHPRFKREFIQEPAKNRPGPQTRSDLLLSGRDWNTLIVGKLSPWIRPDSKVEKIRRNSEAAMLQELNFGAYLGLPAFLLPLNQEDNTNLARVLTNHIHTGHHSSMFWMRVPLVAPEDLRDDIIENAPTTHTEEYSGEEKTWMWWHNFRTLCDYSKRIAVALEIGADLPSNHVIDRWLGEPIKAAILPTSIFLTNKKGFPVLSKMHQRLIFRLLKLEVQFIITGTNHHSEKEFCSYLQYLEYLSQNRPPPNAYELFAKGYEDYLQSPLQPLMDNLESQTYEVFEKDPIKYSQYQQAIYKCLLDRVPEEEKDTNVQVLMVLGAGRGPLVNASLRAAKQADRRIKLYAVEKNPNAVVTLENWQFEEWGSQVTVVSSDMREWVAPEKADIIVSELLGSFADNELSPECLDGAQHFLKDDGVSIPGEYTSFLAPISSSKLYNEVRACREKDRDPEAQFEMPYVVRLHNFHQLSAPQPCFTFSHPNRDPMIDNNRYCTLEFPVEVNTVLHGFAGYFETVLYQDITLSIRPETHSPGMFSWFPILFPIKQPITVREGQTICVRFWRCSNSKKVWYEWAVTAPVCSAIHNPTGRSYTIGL

These are yes or no findings as the source states them, for the method shown. In cells and extracts the contact can be indirect. Some results given as binding are weak or reduced against the parent protein; the word gives no strength.

Assay [1] has as its target Far-upstream element (FUSE)-binding protein 1 (FUBP1), endogenous (human (endogenous in LNCaP and C4-2; the other cell lines of Figure 2I are not given)) (UniProt Q96AE4). Kind of assay: co-IP; FUBP1 and PRMT5 in LNCaP and C4-2 cells with or without nanocomplex-delivered PUBLISH^WT or PUBLISH^3K peptide; the method is not named for this panel.
The target is the same in assay [2]. Put plainly: co-IP; endogenous proteins, different cell lines; 0.3%-0.5% NP-40 lysis buffer (50 mM Tris-HCl pH 8.0, 150 mM NaCl, 1 mM DTT), primary antibody 8 h at 4°C, protein A beads.

On to “PRMT5, endogenous (from UniProt O14744 1-637) (enzyme)”, for which the binding result in assay [1] and in assay [2] was “binds” throughout.
